Values of other authors as cited in US5843713A, “Peptide sequence that forms mucin sugar chain and technique for modifying protein to be linked with mucin sugar chain” (Kirin Beer Kabushiki Kaisha, priority 1994, dated 1998).

Tested on: insect cell
Conditions: sequence inserted between the 80th and 81st amino acids of IL-2; literature

Row | Substance | introduction of mucin type sugar chain
1 | GGKAPTSSSTKGG: literature sequence inserted between the 80th and 81st amino acids of IL-2 | failed
2 | GGKAPTPPPKGG: literature sequence inserted into IL-2, serine residues changed with proline | succeeded in introducing a sugar chain
